These results are taken from the supplement of paper PMC10849652.

Sequences of proteins named here, by UniProt entry; tags and fusion partners are left off. A change or cut given only in a name is not applied to a line headed by its entry.
UniProt O60739, whole entry, looked up: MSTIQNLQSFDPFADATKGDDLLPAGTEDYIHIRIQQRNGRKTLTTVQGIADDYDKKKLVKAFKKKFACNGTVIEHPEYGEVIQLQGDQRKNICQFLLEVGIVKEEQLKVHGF
UniProt Q14919: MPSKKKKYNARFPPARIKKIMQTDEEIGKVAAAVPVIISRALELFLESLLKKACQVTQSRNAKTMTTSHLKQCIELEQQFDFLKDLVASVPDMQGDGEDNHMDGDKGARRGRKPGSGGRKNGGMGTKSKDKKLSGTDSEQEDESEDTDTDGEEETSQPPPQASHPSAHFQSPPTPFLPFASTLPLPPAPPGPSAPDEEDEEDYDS
UniProt Q6V1X1: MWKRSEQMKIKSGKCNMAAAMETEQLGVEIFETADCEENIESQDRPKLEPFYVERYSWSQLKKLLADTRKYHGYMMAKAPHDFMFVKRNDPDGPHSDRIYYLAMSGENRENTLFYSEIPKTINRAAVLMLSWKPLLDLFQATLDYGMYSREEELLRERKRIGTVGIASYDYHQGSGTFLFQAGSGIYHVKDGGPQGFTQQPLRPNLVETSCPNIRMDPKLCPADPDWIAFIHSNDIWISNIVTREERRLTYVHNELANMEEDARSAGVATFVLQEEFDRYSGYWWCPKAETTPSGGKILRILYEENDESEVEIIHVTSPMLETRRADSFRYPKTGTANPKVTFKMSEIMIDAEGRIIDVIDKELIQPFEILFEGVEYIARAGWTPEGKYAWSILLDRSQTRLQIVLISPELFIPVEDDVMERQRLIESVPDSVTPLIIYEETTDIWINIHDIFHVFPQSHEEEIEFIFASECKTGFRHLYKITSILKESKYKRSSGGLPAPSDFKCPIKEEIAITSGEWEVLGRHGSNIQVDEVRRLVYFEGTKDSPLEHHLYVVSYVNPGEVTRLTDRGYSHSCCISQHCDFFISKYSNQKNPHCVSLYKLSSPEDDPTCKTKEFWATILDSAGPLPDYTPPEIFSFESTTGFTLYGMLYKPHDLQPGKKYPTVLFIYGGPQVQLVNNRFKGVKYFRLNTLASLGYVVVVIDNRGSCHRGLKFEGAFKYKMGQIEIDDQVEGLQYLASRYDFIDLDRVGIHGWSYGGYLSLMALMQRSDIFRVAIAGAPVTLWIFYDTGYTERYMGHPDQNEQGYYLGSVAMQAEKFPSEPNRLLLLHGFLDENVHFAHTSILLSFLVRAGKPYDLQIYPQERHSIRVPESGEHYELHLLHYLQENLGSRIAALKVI
UniProt Q9H410: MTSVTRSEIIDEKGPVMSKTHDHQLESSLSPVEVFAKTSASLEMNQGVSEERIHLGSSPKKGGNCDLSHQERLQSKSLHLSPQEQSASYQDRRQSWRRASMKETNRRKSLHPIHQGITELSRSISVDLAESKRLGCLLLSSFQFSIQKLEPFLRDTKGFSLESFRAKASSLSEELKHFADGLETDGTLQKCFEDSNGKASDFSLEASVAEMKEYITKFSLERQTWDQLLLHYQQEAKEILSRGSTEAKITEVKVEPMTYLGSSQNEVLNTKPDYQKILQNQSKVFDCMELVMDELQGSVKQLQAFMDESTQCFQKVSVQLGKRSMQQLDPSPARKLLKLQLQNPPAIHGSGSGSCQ
UniProt Q7RTS9: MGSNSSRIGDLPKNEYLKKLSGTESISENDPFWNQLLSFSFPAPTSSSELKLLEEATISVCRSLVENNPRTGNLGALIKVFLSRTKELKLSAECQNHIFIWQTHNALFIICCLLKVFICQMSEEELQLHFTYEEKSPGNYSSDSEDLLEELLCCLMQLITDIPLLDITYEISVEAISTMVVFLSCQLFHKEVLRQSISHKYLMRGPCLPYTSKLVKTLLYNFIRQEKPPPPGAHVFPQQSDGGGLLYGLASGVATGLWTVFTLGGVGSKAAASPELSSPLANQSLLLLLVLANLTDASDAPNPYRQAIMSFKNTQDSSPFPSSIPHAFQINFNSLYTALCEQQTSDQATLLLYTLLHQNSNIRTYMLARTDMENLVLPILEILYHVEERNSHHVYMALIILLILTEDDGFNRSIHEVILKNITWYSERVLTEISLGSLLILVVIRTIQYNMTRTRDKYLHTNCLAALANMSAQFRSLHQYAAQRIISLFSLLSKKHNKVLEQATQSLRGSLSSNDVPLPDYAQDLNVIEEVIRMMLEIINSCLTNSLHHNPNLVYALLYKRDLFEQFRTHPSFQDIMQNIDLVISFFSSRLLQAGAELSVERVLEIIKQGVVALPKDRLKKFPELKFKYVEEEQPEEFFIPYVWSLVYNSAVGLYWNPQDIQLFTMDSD
UniProt Q15029: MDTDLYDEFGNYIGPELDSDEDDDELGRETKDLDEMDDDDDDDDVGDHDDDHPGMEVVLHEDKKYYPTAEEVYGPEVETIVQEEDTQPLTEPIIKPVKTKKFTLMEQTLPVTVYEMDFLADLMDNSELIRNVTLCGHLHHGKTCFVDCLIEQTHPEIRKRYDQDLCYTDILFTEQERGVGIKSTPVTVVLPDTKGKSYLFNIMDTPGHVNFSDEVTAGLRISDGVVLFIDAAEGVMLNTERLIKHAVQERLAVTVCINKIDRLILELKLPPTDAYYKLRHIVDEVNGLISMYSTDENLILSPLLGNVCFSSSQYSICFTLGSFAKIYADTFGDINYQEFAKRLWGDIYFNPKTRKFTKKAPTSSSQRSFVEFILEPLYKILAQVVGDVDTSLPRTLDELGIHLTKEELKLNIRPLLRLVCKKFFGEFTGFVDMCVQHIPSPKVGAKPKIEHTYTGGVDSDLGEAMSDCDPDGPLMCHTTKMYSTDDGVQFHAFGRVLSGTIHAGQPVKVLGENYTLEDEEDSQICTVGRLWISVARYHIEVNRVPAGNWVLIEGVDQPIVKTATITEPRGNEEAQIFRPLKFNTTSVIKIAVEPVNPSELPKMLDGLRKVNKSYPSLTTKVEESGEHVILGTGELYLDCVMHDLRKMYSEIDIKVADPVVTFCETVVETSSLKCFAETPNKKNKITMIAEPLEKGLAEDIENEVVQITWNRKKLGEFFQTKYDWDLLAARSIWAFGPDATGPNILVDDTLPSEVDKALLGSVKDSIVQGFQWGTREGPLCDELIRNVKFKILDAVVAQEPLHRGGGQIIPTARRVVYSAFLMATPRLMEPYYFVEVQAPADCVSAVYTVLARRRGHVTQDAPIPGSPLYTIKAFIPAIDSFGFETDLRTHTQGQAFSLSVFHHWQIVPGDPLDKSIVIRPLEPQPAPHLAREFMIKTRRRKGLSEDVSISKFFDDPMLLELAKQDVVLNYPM
UniProt Q96G46: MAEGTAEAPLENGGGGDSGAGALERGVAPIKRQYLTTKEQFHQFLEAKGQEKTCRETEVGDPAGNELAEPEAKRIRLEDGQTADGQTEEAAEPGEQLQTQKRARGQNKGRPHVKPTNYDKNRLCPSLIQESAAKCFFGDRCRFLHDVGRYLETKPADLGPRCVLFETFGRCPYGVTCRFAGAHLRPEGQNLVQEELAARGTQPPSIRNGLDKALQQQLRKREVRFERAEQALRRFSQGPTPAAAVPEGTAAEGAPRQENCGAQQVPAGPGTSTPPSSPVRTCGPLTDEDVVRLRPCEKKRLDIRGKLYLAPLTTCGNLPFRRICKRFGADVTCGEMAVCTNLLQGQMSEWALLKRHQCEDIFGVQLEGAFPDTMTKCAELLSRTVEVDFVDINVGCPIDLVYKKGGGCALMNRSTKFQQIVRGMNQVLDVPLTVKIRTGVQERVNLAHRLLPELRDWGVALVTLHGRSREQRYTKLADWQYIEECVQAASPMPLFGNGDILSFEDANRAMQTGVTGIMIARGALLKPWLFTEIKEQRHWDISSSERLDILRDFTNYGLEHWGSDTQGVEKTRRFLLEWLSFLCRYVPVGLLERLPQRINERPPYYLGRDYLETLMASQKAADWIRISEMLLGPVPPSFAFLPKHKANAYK
UniProt Q8NDI1: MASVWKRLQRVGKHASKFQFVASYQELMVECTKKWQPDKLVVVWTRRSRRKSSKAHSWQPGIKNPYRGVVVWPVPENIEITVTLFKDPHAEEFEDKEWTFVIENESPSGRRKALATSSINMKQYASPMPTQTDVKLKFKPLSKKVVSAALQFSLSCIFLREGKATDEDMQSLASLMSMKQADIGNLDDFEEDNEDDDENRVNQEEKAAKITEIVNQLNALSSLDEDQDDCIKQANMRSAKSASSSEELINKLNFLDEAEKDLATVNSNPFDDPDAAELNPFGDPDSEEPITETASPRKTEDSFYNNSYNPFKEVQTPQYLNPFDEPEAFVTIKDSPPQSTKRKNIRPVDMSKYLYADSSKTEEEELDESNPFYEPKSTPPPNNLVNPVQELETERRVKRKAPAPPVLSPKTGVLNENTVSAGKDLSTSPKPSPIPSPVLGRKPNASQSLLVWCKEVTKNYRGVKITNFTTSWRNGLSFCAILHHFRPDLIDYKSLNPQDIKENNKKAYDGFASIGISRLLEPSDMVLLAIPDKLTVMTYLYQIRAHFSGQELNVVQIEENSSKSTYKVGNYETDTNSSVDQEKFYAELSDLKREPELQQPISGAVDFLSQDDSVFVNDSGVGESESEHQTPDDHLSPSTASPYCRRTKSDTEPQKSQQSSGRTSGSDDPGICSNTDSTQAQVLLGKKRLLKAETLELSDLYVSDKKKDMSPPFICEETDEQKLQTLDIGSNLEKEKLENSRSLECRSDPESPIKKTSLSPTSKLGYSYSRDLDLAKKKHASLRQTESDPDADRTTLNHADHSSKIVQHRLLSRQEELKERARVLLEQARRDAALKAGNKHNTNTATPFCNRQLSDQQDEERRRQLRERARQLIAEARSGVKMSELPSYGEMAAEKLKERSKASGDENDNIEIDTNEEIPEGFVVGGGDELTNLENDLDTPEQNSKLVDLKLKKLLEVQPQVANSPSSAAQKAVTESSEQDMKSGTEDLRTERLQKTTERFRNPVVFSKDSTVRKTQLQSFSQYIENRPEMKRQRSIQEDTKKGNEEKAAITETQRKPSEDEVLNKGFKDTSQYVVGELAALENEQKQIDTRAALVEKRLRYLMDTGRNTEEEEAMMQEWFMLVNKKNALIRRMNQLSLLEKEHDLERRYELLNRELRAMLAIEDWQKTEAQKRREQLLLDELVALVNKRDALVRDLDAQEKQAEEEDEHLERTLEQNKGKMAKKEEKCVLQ
UniProt P23919: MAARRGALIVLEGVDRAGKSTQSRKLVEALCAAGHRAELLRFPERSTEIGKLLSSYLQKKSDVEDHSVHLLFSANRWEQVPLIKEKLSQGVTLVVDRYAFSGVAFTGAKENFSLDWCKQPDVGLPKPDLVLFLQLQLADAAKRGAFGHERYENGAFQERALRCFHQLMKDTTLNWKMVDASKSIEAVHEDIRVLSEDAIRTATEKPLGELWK
UniProt Q9BVJ7: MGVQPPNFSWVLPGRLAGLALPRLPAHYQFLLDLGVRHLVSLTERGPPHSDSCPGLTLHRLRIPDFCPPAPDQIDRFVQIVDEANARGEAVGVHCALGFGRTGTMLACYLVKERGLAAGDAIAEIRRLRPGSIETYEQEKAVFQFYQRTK
UniProt Q86TI2: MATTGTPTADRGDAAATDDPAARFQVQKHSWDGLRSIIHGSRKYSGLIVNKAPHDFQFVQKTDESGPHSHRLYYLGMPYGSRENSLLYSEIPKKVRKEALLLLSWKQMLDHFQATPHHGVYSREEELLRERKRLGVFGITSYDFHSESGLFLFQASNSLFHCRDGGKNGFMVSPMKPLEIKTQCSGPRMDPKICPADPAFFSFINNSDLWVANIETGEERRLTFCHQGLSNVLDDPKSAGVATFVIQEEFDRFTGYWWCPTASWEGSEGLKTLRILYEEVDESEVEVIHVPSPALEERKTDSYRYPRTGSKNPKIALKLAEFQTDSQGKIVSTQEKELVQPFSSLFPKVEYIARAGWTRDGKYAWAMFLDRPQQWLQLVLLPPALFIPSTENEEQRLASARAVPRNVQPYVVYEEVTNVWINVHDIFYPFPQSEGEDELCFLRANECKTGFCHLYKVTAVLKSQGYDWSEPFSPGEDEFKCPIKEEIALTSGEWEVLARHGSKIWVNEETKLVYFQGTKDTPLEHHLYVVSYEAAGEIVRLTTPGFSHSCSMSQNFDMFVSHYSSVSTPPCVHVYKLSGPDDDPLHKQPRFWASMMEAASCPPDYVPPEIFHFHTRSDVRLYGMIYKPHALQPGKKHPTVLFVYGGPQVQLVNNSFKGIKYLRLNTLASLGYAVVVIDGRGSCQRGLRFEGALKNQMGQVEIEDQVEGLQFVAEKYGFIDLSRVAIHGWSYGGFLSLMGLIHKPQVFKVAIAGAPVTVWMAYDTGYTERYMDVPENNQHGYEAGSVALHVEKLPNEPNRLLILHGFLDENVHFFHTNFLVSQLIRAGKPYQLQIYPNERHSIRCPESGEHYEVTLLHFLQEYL
UniProt P24534: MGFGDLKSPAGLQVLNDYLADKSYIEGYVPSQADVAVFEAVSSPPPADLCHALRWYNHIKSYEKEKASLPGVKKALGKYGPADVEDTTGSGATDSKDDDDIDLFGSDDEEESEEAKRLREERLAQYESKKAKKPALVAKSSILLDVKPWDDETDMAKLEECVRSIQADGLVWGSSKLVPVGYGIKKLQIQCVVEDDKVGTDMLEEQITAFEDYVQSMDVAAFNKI

Some of the results follow.

Compound in this test: C#Cc1cccc(Nc2ncnc3cc(OCCOC)c(OCCOC)cc23)c1 [erlotinib]
As to the kind of experiment: log2 fold change, soluble protein after heating vs DMSO (PISA); higher = thermal stabilisation; K562 lysate, 10 uM; active = over 0.2 and 3.5 SD of the protein, either way, in both replicates (recomputed). The procedure, abridged: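 Pellets of K562 cells were dounce-homogenised in PBS pH 7.4 with 1 mM MgCl2, and the crude extract was held at 1 mg/mL protein for a 30 min treatment with 10 μM compound. Aliquots were heated for 3 min over 48°C-58°C and pooled before NP-40 was added to 0.5% at 4°C. The supernatant from 21,000xg for 90 min was quantified by TMTpro 16plex LC-MS/MS with channel sums equalised. Values are reported from duplicates as log-two fold change in thermal stability relative to solvent controls.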
For EIF1B (UniProt O60739), the log2 fold change was inactive: -0.032.
With EDF1 (UniProt O60869), the log2 fold change was inactive: 0.013.
For DRAP1 isoform 2 (UniProt Q14919), the log2 fold change is inactive: -0.058.
Regarding E2F4 (UniProt Q16254), the log2 fold change is inactive: 0.048.
For the target EFHD2 (UniProt Q96C19), the log2 fold change was inactive: -0.002.
As to DPP8 (UniProt Q6V1X1), the log2 fold change is inactive: -0.018.
For DSN1 (UniProt Q9H410), the log2 fold change was inactive: -0.021.
To DUS4L (UniProt O95620) belongs inactive: 0.03; to EEF1E1 (UniProt O43324), inactive: 0.04.
As to DYM (UniProt Q7RTS9), the log2 fold change is inactive: -0.072.
In the case of EFTUD2 (UniProt Q15029), the log2 fold change was inactive: -0.018.
Take EIF2A (UniProt Q9BY44): the log2 fold change is inactive: 0.003.
To EEF1AKMT2, A0A494BZY7 belongs inactive: 0.008; to DPY19L1, A0A1B0GW05, inactive: 0.004; to EDEM1 (UniProt Q92611), inactive: 0.033.
Take DPYSL2 (UniProt Q16555): the log2 fold change is inactive: 0.
On to DUS3L (UniProt Q96G46), for which the log2 fold change was inactive: -0.009.
As for DSCC1 (UniProt Q9BVC3), the log2 fold change was inactive: 0.035.
Consider EHBP1 isoform 2 (UniProt Q8NDI1), for which the log2 fold change was inactive: 0.018.
EDARADD (UniProt Q8WWZ3): the log2 fold change is inactive: 0.013.
In the case of EFHD1 (UniProt Q9BUP0), the log2 fold change was inactive: 0.02.
To DTYMK (UniProt P23919) belongs inactive: -0.013; to DYNLL2 (UniProt Q96FJ2), inactive: -0.049.
Regarding DPH7 (UniProt Q9BTV6), the log2 fold change was inactive: 0.018.
Consider ECH1 (UniProt Q13011), for which the log2 fold change was inactive: -0.041.
On to DUSP23 (UniProt Q9BVJ7), for which the log2 fold change was inactive: -0.026.
On to DYNLRB1 (UniProt Q9NP97), for which the log2 fold change is inactive: -0.013.
To DPP9 isoform 2 (UniProt Q86TI2) belongs inactive: 0.009; to DPP7 (UniProt Q9UHL4), inactive: -0.005.
As for EEF1D isoform 2 (UniProt P29692), the log2 fold change was inactive: -0.012.
On to EEF1B2 (UniProt P24534), for which the log2 fold change was inactive: 0.009.
As to DUT (UniProt P33316), the log2 fold change was inactive: -0.028.
Take EED, A0A5F9ZI63: the log2 fold change was inactive: 0.019.
Take DPH6 (UniProt Q7L8W6): the log2 fold change is inactive: 0.005.
For ECT2 (UniProt Q9H8V3), the log2 fold change was inactive: -0.016.
As for DUSP3 (UniProt P51452), the log2 fold change was inactive: 0.002.
Take DYNC1H1 (UniProt Q14204): the log2 fold change was inactive: 0.018.
To EIF1AD (UniProt Q8N9N8) belongs inactive: 0.005; to ECI2 (UniProt O75521), inactive: 0.032; to EBNA1BP2 (UniProt Q99848), inactive: -0.033.
